Measurements as given in publication PMC6307745.
No constants are given. Whether binding was seen depends on the method and setting. In cells and extracts the contact can be indirect. Here binding means that the protein was enriched with, or labelled near, the bait; the list need not be complete. Where a sequence is shown, tags or fusion partners need not be part of it.

Amino acid sequences for entries named in this document (tags omitted).
UniProt Q03135: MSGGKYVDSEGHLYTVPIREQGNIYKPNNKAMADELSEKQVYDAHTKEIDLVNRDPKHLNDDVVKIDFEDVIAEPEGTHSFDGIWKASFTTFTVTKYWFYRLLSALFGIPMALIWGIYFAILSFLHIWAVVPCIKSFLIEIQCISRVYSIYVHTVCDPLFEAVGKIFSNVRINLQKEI

Experiments:
[1] = molecular target: T1, cavin1-myc-BirA* (rat) (UniProt P85125); experiment: proximity labelling; BioID in HeLa cells, 50 uM biotin for 16-20 hours, lysis in 1% Triton X-100, 1% octyl-glucoside, capture on streptavidin beads, mass spectrometry; 7 experiments, enrichment over negative control BirA* constructs
T1 sequence: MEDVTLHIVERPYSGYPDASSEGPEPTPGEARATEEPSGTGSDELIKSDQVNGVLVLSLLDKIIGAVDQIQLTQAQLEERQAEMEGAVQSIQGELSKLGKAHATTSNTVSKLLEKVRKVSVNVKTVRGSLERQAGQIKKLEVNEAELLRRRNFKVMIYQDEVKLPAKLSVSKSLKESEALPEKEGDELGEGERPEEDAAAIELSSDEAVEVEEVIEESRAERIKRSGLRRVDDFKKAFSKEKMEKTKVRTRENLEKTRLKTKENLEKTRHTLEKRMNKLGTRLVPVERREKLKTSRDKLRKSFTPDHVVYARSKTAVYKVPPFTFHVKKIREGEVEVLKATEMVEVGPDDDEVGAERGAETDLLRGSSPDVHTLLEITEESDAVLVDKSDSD

[2] = molecular target: T1, cavin1-myc-BirA* (rat); experiment: proximity labelling; BioID in HeLa cells transfected with cavin1-myc-BirA* and incubated with exogenous biotin; biotinylated proteins shown on blots with streptavidin-HRP, or precipitated with immobilised streptavidin and blotted with anti-caveolin1

## caveolin1 (endogenous, HeLa) (from UniProt Q03135 1-178)
[1]
  binding: binds
[2]
  binding: binds
